{"source": "PubChem BioAssay AID743325", "about": "(National Center for Advancing Translational Sciences (NCATS), 2014)", "note": "Most of the hits are listed elsewhere, so they are rarer here than in the full data.", "data": [{"assay": "qHTS profiling of Chloroquine Analogs as inhibitors of Plasmodium falciparum (3D7) proliferation", "details": "at 28.7 µM (top of the series)", "excerpt": "Plasmodium falciparum is a virulent malarial parasite that kills 1-2 million people worldwide each year. Transmitted by mosquitoes, the sporozoite form of the parasite enters the blood stream to infect hepatocytes, where they become merozoites that infect red blood cells (erythrocytes). Within erythrocytes, merozoites begin a […] cycle of growth and division, after which the parasite is released to infect new red blood cells. Gametocytes, which form within erythrocytes as well, circulate in the bloodstream and are ingested by the mosquito, thereby completing the life cycle. To profile malarial isolates for differential chemical responses and to identify inhibitors of malarial growth, an assay that measures P. falciparum growth and replication within erythrocytes was employed. […] Because mature erythrocytes lack DNA, only Plasmodium-derived DNA is detected.\nThe SYBR Green viability assay was adapted from a method described previously (Plouffe et al., 2008). […] The following morning, fluorescence intensity at 485(14) nm excitation and 535(25) nm emission wavelengths was measured on an EnVision (Perkin Elmer) plate reader. Plate reads were normalized relative to the control inhibitor (0.29 uM artemisinin) and vehicle (DMSO) wells present on each plate and then corrected by an algorithm using vehicle-only control plates at the beginning and end of the compound plate stack.", "units": {"activity change, negative = inhibition": "%"}, "values": [{"smiles": "O=C(CCCCCCC(=O)Nc1ccccc1)NO", "activity change, negative = inhibition": -101}]}]}
